Assay: Metabolomics of fetal brain at E14.5
Type: in vivo, C57Bl/6J mice
Details: E14.5 fetal brain metabolite level; for fold of change ABX/SPF: ANOVA contrast ABX vs SPF; for fold of change GF/ABX: ANOVA contrast GF vs ABX; for fold of change GF/SPF: ANOVA contrast GF vs SPF; for fold of change GF/Sp: ANOVA contrast GF vs Sp; for fold of change Sp/ABX: ANOVA contrast Sp vs ABX; for fold of change Sp/SPF: ANOVA contrast Sp vs SPF

Row | SMILES | fold of change ABX/SPF | fold of change GF/ABX | fold of change GF/SPF | fold of change GF/Sp | fold of change Sp/ABX | fold of change Sp/SPF
1 | CC/C=C\C/C=C\C/C=C\C/C=C\C/C=C\C/C=C\CCC(=O)O[C@H](COC(=O)CCCCCCC/C=C\CCCCCCCC)COP(=O)(O)OCCN [compound 1982] | 0.99 | 0.77 | 0.76 | 0.87 | 0.88 | 0.86
2 | CCCCC/C=C\C/C=C\C/C=C\C/C=C\CCCC(=O)OC(COC(=O)CCCCCCC/C=C\C/C=C\CCCCC)COP(=O)(O)OCCN (stereo not drawn) [compound 1985] | 1.15 | 0.92 | 1.06 | 1.42 | 0.65 | 0.74
3 | CCCCCCCCC=CCCCCCCCC(=O)OC(COC(=O)CCCCCCCCCCCCCCC)COP(=O)(O)OCC(N)C(=O)O (stereo not drawn) [compound 2016] | 0.93 | 0.99 | 0.92 | 1.02 | 0.97 | 0.90
4 | CCCCCCCC/C=C\CCCCCCCC(=O)OC(COC(=O)CCCCCCCCCCCCCCCCC)COP(=O)(O)OCC(N)C(=O)O (stereo not drawn) [compound 2021] | 0.91 | 0.97 | 0.88 | 0.97 | 1.00 | 0.92
5 | CCCCC/C=C\C/C=C\C/C=C\C/C=C\CCCC(=O)O[C@H](COC(=O)CCCCCCCCCCCCCCCCC)COP(=O)(O)OC[C@H](N)C(=O)O [compound 2024] | 0.91 | 0.93 | 0.85 | 0.99 | 0.94 | 0.86
6 | CCCCCCCC/C=C\CCCCCCCC(=O)OC(COC(=O)CCCCCCCCCCCCCCC)COP(=O)(O)OCC(O)CO (stereo not drawn) [compound 2034] | 0.72 | 1.01 | 0.73 | 0.86 | 1.17 | 0.84
7 | CCCCC/C=C\C/C=C\C/C=C\C/C=C\CCCC(=O)O[C@H](COC(=O)CCCCCCCCCCCCCCC)COP(=O)(O)OC1C(O)C(O)C(O)C(O)C1O (stereo partly drawn) [compound 2052] | 0.83 | 0.85 | 0.71 | 0.91 | 0.93 | 0.77
8 | CCCCC/C=C\C/C=C\C/C=C\C/C=C\CCCC(=O)O[C@H](COC(=O)CCCCCCCCCCCCCCCCC)COP(=O)(O)OC1C(O)C(O)C(O)C(O)C1O (stereo partly drawn) [compound 2067] | 0.83 | 0.92 | 0.77 | 0.96 | 0.96 | 0.80
9 | CCCCC/C=C\C/C=C\C/C=C\C/C=C\CCCC(=O)OC(COC(=O)CCCCCCC/C=C\CCCCCCCC)COP(=O)(O)OC1C(O)C(O)C(O)C(O)C1O (stereo not drawn) [compound 2072] | 0.91 | 0.81 | 0.74 | 0.97 | 0.84 | 0.76
10 | CCCCCCCCCCCCCCCC(=O)OCC(O)COP(=O)([O-])OCC[N+](C)(C)C (stereo not drawn) [compound 2105] | 0.56 | 1.16 | 0.65 | 0.78 | 1.49 | 0.83
11 | CCCCCCCCCCCCCCCC(=O)OC(CO)COP(=O)([O-])OCC[N+](C)(C)C (stereo not drawn) [compound 2106] | 0.61 | 1.25 | 0.76 | 0.83 | 1.50 | 0.91
12 | CCCCCCC=CCCCCCCCC(=O)OCC(O)COP(=O)([O-])OCC[N+](C)(C)C (stereo not drawn) [compound 2107] | 0.65 | 1.17 | 0.75 | 0.86 | 1.36 | 0.88
13 | CCCCCCCCCCCCCCCCCC(=O)OCC(O)COP(=O)([O-])OCC[N+](C)(C)C (stereo not drawn) [compound 2113] | 0.56 | 1.28 | 0.71 | 0.80 | 1.60 | 0.89
14 | CCCCCCCCC=CCCCCCCCC(=O)OCC(O)COP(=O)([O-])OCC[N+](C)(C)C (stereo not drawn) [compound 2115] | 0.61 | 1.12 | 0.68 | 0.77 | 1.45 | 0.88
15 | CCCCCC=CCC=CCCCCCCCC(=O)OCC(O)COP(=O)([O-])OCC[N+](C)(C)C (stereo not drawn) [compound 2118] | 0.85 | 1.11 | 0.94 | 1.10 | 1.01 | 0.86
16 | CCCCCC=CCC=CCC=CCC=CCCCC(=O)OCC(O)COP(=O)([O-])OCC[N+](C)(C)C (stereo not drawn) [compound 2136] | 0.75 | 0.51 | 0.39 | 0.78 | 0.65 | 0.49
17 | CCCCCCCCCCCCCCCC(=O)OCC(O)COP(=O)(O)OCCN (stereo not drawn) [compound 2157] | 0.61 | 1.18 | 0.72 | 0.81 | 1.45 | 0.89
18 | CCCCCCCCCCCCCCCCCC(=O)OCC(O)COP(=O)(O)OCCN (stereo not drawn) [compound 2164] | 0.70 | 0.97 | 0.68 | 0.85 | 1.15 | 0.80
19 | CCCCCCCCCCCCCCCCCC(=O)OC(CO)COP(=O)(O)OCCN (stereo not drawn) [compound 2165] | 0.91 | 0.70 | 0.64 | 1.05 | 0.67 | 0.60
20 | CCCCCCCC/C=C\CCCCCCCC(=O)OCC(O)COP(=O)(O)OCCN (stereo not drawn) [compound 2166] | 0.75 | 1.11 | 0.84 | 0.87 | 1.27 | 0.96
21 | CCCCC/C=C\C/C=C\CCCCCCCC(=O)OCC(O)COP(=O)(O)OCCN (stereo not drawn) [compound 2168] | 0.84 | 1.18 | 0.99 | 1.09 | 1.08 | 0.91
22 | CCCCC/C=C\C/C=C\C/C=C\C/C=C\CCCC(=O)OCC(O)COP(=O)(O)OCCN (stereo not drawn) [compound 2179] | 0.57 | 1.60 | 0.92 | 1.04 | 1.53 | 0.88
23 | CCCCCCCCCCCCCCCC(=O)OCC(O)COP(=O)(O)OCC(N)C(=O)O (stereo not drawn) [compound 2192] | 0.50 | 1.38 | 0.69 | 0.95 | 1.46 | 0.73
24 | CCCCCCCCCCCCCCCCCC(=O)OCC(O)COP(=O)(O)OCC(N)C(=O)O (stereo not drawn) [compound 2193] | 0.38 | 1.87 | 0.71 | 0.88 | 2.12 | 0.81
